Screening data

Data taken from PubChem BioAssay AID504749, deposited by NCATS (2011).

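Malaria parasite (P. falciparum) lines kept in red blood cells; parasite DNA is measured by SYBR Green fluorescence after lysis, 72 h after compound addition. Each compound was titrated across a series from about 0.000037 to 29 µM. The number is the fitted AC50, the concentration giving a half-maximal change in signal; a lower value means higher potency, whether the curve shows a decrease or an increase. Calls follow the curve class and fit quality: every row here is inconclusive, covering signal-raising curves and weak, poorly fitted, partial or highest-dose-only inhibition curves.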

Values are in µM. Every entry below has the call inconclusive. These entries are mostly ones the record files as inconclusive; other results of the assay are not listed here. Potencies fitted to partial, single-point or poorly fitting curves are rough.

{"structure": "CN(C)CCOC(c1ccc(Cl)cc1)c1ccccn1", "stereo": "centres undefined", "setting": "N140", "potency (µM)": "8.912", "curve": "inhibitor, partial curve"}
{"structure": "CN(C)CCOC(c1ccc(Cl)cc1)c1ccccn1", "stereo": "centres undefined", "setting": "CP194", "potency (µM)": "7.569", "curve": "inhibitor, partial curve"}
{"structure": "CN(C)CCOC(c1ccc(Cl)cc1)c1ccccn1", "stereo": "centres undefined", "setting": "CP269", "potency (µM)": "7.569", "curve": "inhibitor, partial curve, poor fit"}
{"structure": "CN(C)CCOC(c1ccc(Cl)cc1)c1ccccn1", "stereo": "centres undefined", "setting": "DIV14", "potency (µM)": "3.793", "curve": "inhibitor, partial curve, poor fit"}
{"structure": "CCCCCCCCOc1ccccc1C(=O)Nc1ccc(C(=O)OCC[N+](C)(CC)CC)cc1", "setting": "N140", "potency (µM)": "10", "curve": "inhibitor, single point"}
{"structure": "CCCCCCCCOc1ccccc1C(=O)Nc1ccc(C(=O)OCC[N+](C)(CC)CC)cc1", "setting": "CP269", "potency (µM)": "19.01", "curve": "inhibitor, single point"}
{"structure": "CCCCCCCCOc1ccccc1C(=O)Nc1ccc(C(=O)OCC[N+](C)(CC)CC)cc1", "setting": "AS120", "potency (µM)": "10", "curve": "inhibitor, single point"}
{"structure": "CCCCCCCCOc1ccccc1C(=O)Nc1ccc(C(=O)OCC[N+](C)(CC)CC)cc1", "setting": "PAD", "potency (µM)": "17.78", "curve": "inhibitor, single point"}
{"structure": "CCCCCCCCOc1ccccc1C(=O)Nc1ccc(C(=O)OCC[N+](C)(CC)CC)cc1", "setting": "CP211", "potency (µM)": "19.01", "curve": "inhibitor, single point"}
{"structure": "CCCCCCCCOc1ccccc1C(=O)Nc1ccc(C(=O)OCC[N+](C)(CC)CC)cc1", "setting": "DIV30", "potency (µM)": "16.94", "curve": "inhibitor, single point"}
{"structure": "CCCCCCCCOc1ccccc1C(=O)Nc1ccc(C(=O)OCC[N+](C)(CC)CC)cc1", "setting": "CP203", "potency (µM)": "10.69", "curve": "inhibitor, partial curve"}
{"structure": "CCCCCCCCOc1ccccc1C(=O)Nc1ccc(C(=O)OCC[N+](C)(CC)CC)cc1", "setting": "CP192", "potency (µM)": "13.46", "curve": "inhibitor, single point"}
{"structure": "CCCCCCCCOc1ccccc1C(=O)Nc1ccc(C(=O)OCC[N+](C)(CC)CC)cc1", "setting": "CP325", "potency (µM)": "19.01", "curve": "inhibitor, single point"}
{"structure": "CCCCCCCCOc1ccccc1C(=O)Nc1ccc(C(=O)OCC[N+](C)(CC)CC)cc1", "setting": "CP250", "potency (µM)": "10", "curve": "inhibitor, single point"}
{"structure": "CCCCCCCCOc1ccccc1C(=O)Nc1ccc(C(=O)OCC[N+](C)(CC)CC)cc1", "setting": "DIV14", "potency (µM)": "15.1", "curve": "inhibitor, single point"}
{"structure": "CCCCCCCCOc1ccccc1C(=O)Nc1ccc(C(=O)OCC[N+](C)(CC)CC)cc1", "setting": "PC49", "potency (µM)": "12.59", "curve": "inhibitor, single point"}
{"structure": "CCCCCCCCOc1ccccc1C(=O)Nc1ccc(C(=O)OCC[N+](C)(CC)CC)cc1", "setting": "CP315", "potency (µM)": "19.01", "curve": "inhibitor, single point"}
{"structure": "CCCCCCCCOc1ccccc1C(=O)Nc1ccc(C(=O)OCC[N+](C)(CC)CC)cc1", "setting": "CP266", "potency (µM)": "15.1", "curve": "inhibitor, single point"}
{"structure": "CCCCCCCCOc1ccccc1C(=O)Nc1ccc(C(=O)OCC[N+](C)(CC)CC)cc1", "setting": "CP252", "potency (µM)": "14.13", "curve": "inhibitor, single point"}
{"structure": "CCCCCCCCOc1ccccc1C(=O)Nc1ccc(C(=O)OCC[N+](C)(CC)CC)cc1", "setting": "ATS189", "potency (µM)": "11.22", "curve": "inhibitor, single point"}
{"structure": "CCCCCCCCOc1ccccc1C(=O)Nc1ccc(C(=O)OCC[N+](C)(CC)CC)cc1", "setting": "PC15", "potency (µM)": "8.912", "curve": "inhibitor, single point"}
{"structure": "CCCCCCCCOc1ccccc1C(=O)Nc1ccc(C(=O)OCC[N+](C)(CC)CC)cc1", "setting": "CP329", "potency (µM)": "19.01", "curve": "inhibitor, single point"}
{"structure": "CCCCCCCCOc1ccccc1C(=O)Nc1ccc(C(=O)OCC[N+](C)(CC)CC)cc1", "setting": "HB3", "potency (µM)": "11.22", "curve": "inhibitor, single point"}
{"structure": "CCCCCCCCOc1ccccc1C(=O)Nc1ccc(C(=O)OCC[N+](C)(CC)CC)cc1", "setting": "DIV17", "potency (µM)": "13.46", "curve": "inhibitor, single point"}
{"structure": "CCCCCCCCOc1ccccc1C(=O)Nc1ccc(C(=O)OCC[N+](C)(CC)CC)cc1", "setting": "CP291", "potency (µM)": "13.46", "curve": "inhibitor, single point"}
{"structure": "CCCCCCCCOc1ccccc1C(=O)Nc1ccc(C(=O)OCC[N+](C)(CC)CC)cc1", "setting": "P94_40", "potency (µM)": "17.78", "curve": "inhibitor, single point"}
{"structure": "CCCCCCCCOc1ccccc1C(=O)Nc1ccc(C(=O)OCC[N+](C)(CC)CC)cc1", "setting": "CP268", "potency (µM)": "13.46", "curve": "inhibitor, single point"}
{"structure": "CCCCCCCCOc1ccccc1C(=O)Nc1ccc(C(=O)OCC[N+](C)(CC)CC)cc1", "setting": "CP256", "potency (µM)": "10", "curve": "inhibitor, single point"}
{"structure": "CCCCCCCCOc1ccccc1C(=O)Nc1ccc(C(=O)OCC[N+](C)(CC)CC)cc1", "setting": "SC27B", "potency (µM)": "7.943", "curve": "inhibitor, partial curve"}
{"structure": "CCCCCCCCOc1ccccc1C(=O)Nc1ccc(C(=O)OCC[N+](C)(CC)CC)cc1", "setting": "JCK", "potency (µM)": "7.943", "curve": "inhibitor, partial curve, poor fit"}
{"structure": "CCCCCCCCOc1ccccc1C(=O)Nc1ccc(C(=O)OCC[N+](C)(CC)CC)cc1", "setting": "Dd2", "potency (µM)": "15.85", "curve": "inhibitor, single point"}

For reference, 4 entries once more:

structure	setting	potency (µM)	curve
CCCCCCCCOc1ccccc1C(=O)Nc1ccc(C(=O)OCC[N+](C)(CC)CC)cc1	JCK	7.943	inhibitor, partial curve, poor fit
CCCCCCCCOc1ccccc1C(=O)Nc1ccc(C(=O)OCC[N+](C)(CC)CC)cc1	CP211	19.01	inhibitor, single point
CCCCCCCCOc1ccccc1C(=O)Nc1ccc(C(=O)OCC[N+](C)(CC)CC)cc1	CP192	13.46	inhibitor, single point
CCCCCCCCOc1ccccc1C(=O)Nc1ccc(C(=O)OCC[N+](C)(CC)CC)cc1	CP329	19.01	inhibitor, single point